Laboratory results from paper PMC8927117, “Structural Insight into the MCM double hexamer activation by Dbf4-Cdc7 kinase” (Nature Communications, 2022).
Results are given in words; binding and its absence hold for the method and conditions named. Some binding calls cover weakened binding; strength is not graded here.

Key:
[1] = target: T1, Mcm5 (subunit of the MCM double hexamer) (budding yeast (endogenous in W303)) (UniProt P29496); test: cryo-EM structure; DDK-DH mixture (ATP-γ-S) mildly crosslinked by Grafix: 20-40% glycerol gradient with 0-0.025% glutaraldehyde, 150 mM KOAc, pH 7.6, 4 °C; States I-IV and Groups I-VI by focused 3D classification; both purified
T1 sequence: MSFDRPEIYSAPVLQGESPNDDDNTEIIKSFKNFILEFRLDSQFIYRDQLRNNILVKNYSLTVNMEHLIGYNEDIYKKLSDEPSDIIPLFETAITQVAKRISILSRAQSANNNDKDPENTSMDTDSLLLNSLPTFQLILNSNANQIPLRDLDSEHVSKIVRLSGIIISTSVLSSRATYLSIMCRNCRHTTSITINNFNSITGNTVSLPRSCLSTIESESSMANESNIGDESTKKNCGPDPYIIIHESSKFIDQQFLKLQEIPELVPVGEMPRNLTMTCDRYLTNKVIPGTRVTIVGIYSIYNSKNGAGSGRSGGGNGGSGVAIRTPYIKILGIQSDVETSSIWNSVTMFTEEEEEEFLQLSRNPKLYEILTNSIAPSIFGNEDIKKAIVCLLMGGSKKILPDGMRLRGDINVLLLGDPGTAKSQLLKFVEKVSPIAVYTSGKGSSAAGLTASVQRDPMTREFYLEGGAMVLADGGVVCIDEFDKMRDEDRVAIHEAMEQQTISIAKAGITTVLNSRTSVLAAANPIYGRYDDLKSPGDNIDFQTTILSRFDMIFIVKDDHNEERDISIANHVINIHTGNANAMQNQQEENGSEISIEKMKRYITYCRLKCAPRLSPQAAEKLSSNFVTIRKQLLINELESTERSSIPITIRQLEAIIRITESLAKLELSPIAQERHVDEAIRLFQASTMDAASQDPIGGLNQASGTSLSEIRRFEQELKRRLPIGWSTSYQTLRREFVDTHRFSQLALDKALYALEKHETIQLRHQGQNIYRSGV

[2] = target: T2, Mcm7 (subunit of the MCM double hexamer) (budding yeast (endogenous in W303)) (UniProt P38132); test: as above
T2 sequence: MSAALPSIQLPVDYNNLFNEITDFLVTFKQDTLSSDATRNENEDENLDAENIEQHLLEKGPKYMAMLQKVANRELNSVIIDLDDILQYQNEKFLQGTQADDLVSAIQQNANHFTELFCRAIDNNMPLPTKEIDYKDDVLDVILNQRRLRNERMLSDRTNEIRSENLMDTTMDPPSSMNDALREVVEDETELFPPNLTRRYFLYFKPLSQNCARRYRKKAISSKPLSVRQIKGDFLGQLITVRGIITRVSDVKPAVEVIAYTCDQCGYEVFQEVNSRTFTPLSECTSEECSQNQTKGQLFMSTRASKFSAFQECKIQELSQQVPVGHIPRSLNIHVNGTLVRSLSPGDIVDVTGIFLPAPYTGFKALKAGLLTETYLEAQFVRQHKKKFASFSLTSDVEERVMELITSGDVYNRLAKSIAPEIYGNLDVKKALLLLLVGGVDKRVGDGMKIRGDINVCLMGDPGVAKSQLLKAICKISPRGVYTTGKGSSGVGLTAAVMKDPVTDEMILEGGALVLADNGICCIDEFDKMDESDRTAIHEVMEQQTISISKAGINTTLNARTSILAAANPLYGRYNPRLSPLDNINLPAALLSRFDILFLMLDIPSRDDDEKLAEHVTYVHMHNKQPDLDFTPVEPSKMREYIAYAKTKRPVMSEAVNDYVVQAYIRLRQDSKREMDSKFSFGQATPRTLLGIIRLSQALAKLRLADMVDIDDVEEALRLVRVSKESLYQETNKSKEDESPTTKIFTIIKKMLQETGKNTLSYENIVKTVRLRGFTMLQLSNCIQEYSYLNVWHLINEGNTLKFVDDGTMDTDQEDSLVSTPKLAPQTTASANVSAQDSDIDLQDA

- binding [1]: binds weakly
- binding [2]: binds weakly
B1: Dbf4 (subunit of the full-length DDK) (protein, UniProt P32325 1-704)
chain: MVSPTKMIIRSPLKETDTNLKHNNGIAASTTAAGHLNVFSNDNNCNNNNTTESFPKKRSLERLELQQQQHLHEKKRARIERARSIEGAVQVSKGTGLKNVEPRVTPKELLEWQTNWKKIMKRDSRIYFDITDDVEMNTYNKSKMDKRRDLLKRGFLTLGAQITQFFDTTVTIVITRRSVENIYLLKDTDILSRAKKNYMKVWSYEKAARFLKNLDVDLDHLSKTKSASLAAPTLSNLLHNEKLYGPTDRDPRTKRDDIHYFKYPHVYLYDLWQTWAPIITLEWKPQELTNLDELPYPILKIGSFGRCPFIGDRNYDESSYKRVVKRYSRDKANKKYALQLRALFQYHADTLLNTSSVNDQTKNLIFIPHTCNDSTKSFKKWMQEKAKNFEKTELKKTDDSAVQDVRNEHADQTDEKNSILLNETETKEPPLKEEKENKQSIAEESNKYPQRKELAATPKLNHPVLATFARQETEEVPDDLCTLKTKSRQAFEIKASGAHQSNDVATSFGNGLGPTRASVMSKNMKSLSRLMVDRKLGVKQTNGNNKNYTATIATTAETSKENRHRLDFNALKKDEAPSKETGKDSAVHLETNRKPQNFPKVATKSVSADSKVHNDIKITTTESPTASKKSTSTNVTLHFNAQTAQTAQPVKKETVKNSGYCENCRVKYESLEQHIVSEKHLSFAENDLNFEAIDSLIENLRFQI
